Measurements taken from PMC3896468.

Target: GST-tagged HMG domain of TCF/Pangolin (Drosophila)
Test: pull-down; GST pulldown: 2 µg His-C-clamp with 2 µg GST or GST-HMG, 1 h at 4°C in 20 mM Tris-HCl pH 7.62, 150 mM NaCl, 1% Triton X-100; then Glutathione Sepharose beads for 2 h; anti-His Western blot. Also done after pretreatment with micrococcal nuclease (5 mM CaCl2) or OPA, with no effect on binding; both purified

With DSGGNNMKACEARFGLDQQSQWCKPCRRKKKCIRYMEALNGNGPAE (domain or fragment, UniProt P91943 363-408) [Mutant 5 His-tagged C-clamp fragment of TCF/Pangolin (K371A, R373E)] the binding was “no binding (tested: 2 µg of each protein)”.

No constants are given. Whether binding was seen depends on the method and setting. Where a sequence is shown, tags or fusion partners need not be part of it.
